Test results reported in PubChem BioAssay AID200 (DTP/NCI, 2004).
The list does not hold the whole screen: it gathers tests that were run many times, whatever their T/C, doses with no T/C, and many T/C values between a quarter and a half above the control. Other doses and runs of a compound stand elsewhere. T/C gives the treated animals as a percentage of the vehicle group. Some doses have a count of surviving animals in place of a T/C: the source holds a T/C of zero for them, seemingly a mark for toxic or unscored doses. Some survivor counts are full or nearly so, which does not show that the dose was tolerated: survival well below the control is almost never listed, so the zero probably covers shortened survival too. Survivors were counted at the toxicity check, usually on the fifth day, unless a day is given; later deaths do not show. Schedule codes are those of the source, read here as Q, the interval in days (D) or hours (H), X, the number of doses. Some entries were tested several times; the results are listed from low to high. Where survival is the endpoint, the PubChem record calls one and a half times the control and up active, and a quarter to a half above the control has no call in these data; cut-offs in other NCI protocols can differ. Some T/C values carry the count of animals alive at the toxicity check (mostly the fifth day); without a count, all were alive then.

System: B6C3F1 mice, B16 melanoma ip, median survival T/C
Test: NCI In Vivo Anticancer Drug Screen. Data for tumor model B16 Melanoma (intraperitoneal) in B6C3F1 mice
Conditions: T/C endpoint: median survival time, higher T/C = longer survival
How it was run: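 Values are T/C ratios: the measurement in treated animals divided by that in vehicle-treated controls, using survival or tumor size in mice carrying transplantable tumors.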

[1] = dose: 200.0 mg/kg/injection, schedule: Q01DX009 (ip), vehicle: saline
[2] = dose: 400.0 mg/kg/injection, schedule: Q01DX009 (ip), vehicle: saline
[3] = dose: 0.4 mg/kg/injection, schedule: Q01DX009 (ip), vehicle: saline

For `CC(O)CNCCNc1ccc(NCCNCC(C)O)c2c1C(=O)c1c(O)ccc(O)c1C2=O` (stereo not drawn), the T/C (dose: 0.25 mg/kg/injection, schedule: Q01DX009 (ip), vehicle: distilled water + Tween-80) was 138 % of control and the T/C (dose: 0.5 mg/kg/injection, schedule: Q01DX009 (ip), vehicle: distilled water + Tween-80) was 149 % of control.
`CCN=C=NCCCN(C)C` was tested, and the survivor count (dose: 25.0 mg/kg/injection, schedule: Q01DX009 (ip), vehicle: saline) was 5 of 10, the survivor count (dose: 50.0 mg/kg/injection, schedule: Q01DX009 (ip), vehicle: saline) was 4 of 10 and the survivor count (dose: 100.0 mg/kg/injection, schedule: Q01DX009 (ip), vehicle: saline) was 0 of 10. The survivor count [1] was 0 of 10.
In the case of `O=C(NC(Cc1ccc(I)cc1)C(=O)O)c1ccc(Br)cc1` (stereo not drawn), the survivor count (dose: 400.0 mg/kg/injection, schedule: Q01DX009 (ip), vehicle: sodium bicarbonate) is reported as 7 of 10.
In the case of `COc1cccc2c1C(=O)c1c(O)c3c(c(O)c1C2=O)C[C@@](O)(C(C)=O)C[C@@H]3OC1CC(N2CCCCC2)C(O)C(C)O1` (stereo partly drawn), the T/C (dose: 6.25 mg/kg/injection, schedule: Q01DX001 (ip), vehicle: water) is reported as 127 and 138 % of control, the survivor count (dose: 12.5 mg/kg/injection, schedule: Q01DX001 (ip), vehicle: water) is reported as 10 of 10 and the survivor count (dose: 25.0 mg/kg/injection, schedule: Q01DX001 (ip), vehicle: water) is reported as 7 of 10.
For `NC(CCl)=NCC12CC3CC(CC(C3)C1)C2`, the T/C (dose: 24.0 mg/kg/injection, schedule: Q01DX009 (ip), vehicle: Klucel (hydroxypropylcellulose) (HPC)) was 125 and 142 % of control and the survivor count (dose: 48.0 mg/kg/injection, schedule: Q01DX009 (ip), vehicle: Klucel (hydroxypropylcellulose) (HPC)) was 7 of 10.
With `CN(C)CCc1ccc(O)cc1` the survivor count [2] was 5 of 10.
With `N#C[Se-].c1ccc([Te+](c2ccccc2)c2ccccc2)cc1` the survivor count (dose: 25.0 mg/kg/injection, schedule: Q01DX009 (ip), vehicle: Klucel (hydroxypropylcellulose) (HPC)) was 0 of 10 and the survivor count (dose: 50.0 mg/kg/injection, schedule: Q01DX009 (ip), vehicle: Klucel (hydroxypropylcellulose) (HPC)) was 0 of 10.
`CC(C)CCCCCCCCCCCCC(=O)NCC(=O)NC1C(C)OC(Nc2ncnc3nc[nH]c23)C(O)C1O` (stereo not drawn) was tested, and the T/C (dose: 1.0 mg/kg/injection, schedule: Q01DX009 (ip), vehicle: distilled water + Tween-80) was 126 % of control, the T/C (dose: 2.0 mg/kg/injection, schedule: Q01DX009 (ip), vehicle: distilled water + Tween-80) was 141 % of control and the T/C (dose: 4.0 mg/kg/injection, schedule: Q01DX008 (ip), vehicle: distilled water + Tween-80) was 130 % of control. The T/C (dose: 4.0 mg/kg/injection, schedule: Q01DX009 (ip), vehicle: distilled water + Tween-80) was 126 % of control, the survivor count (dose: 8.0 mg/kg/injection, schedule: Q01DX008 (ip), vehicle: distilled water + Tween-80) was 9 of 10 and the survivor count (dose: 8.0 mg/kg/injection, schedule: Q01DX009 (ip), vehicle: distilled water + Tween-80) was 10 of 10.
For `CC(=O)[C@]1(O)Cc2c(O)c3c(c(O)c2[C@@H](OC2CC(N)C(O)C(C)O2)C1)C(=O)c1c(O)cccc1C3=O` (stereo partly drawn), the T/C (dose: 0.75 mg/kg/injection, schedule: Q01DX001 (ip), vehicle: water) was 135 % of control, the survivor count (dose: 1.5 mg/kg/injection, schedule: Q01DX001 (ip), vehicle: water) was 10 of 10 and the survivor count (dose: 3.0 mg/kg/injection, schedule: Q01DX001 (ip), vehicle: water) was 7 of 10. For the same compound, the survivor count (dose: 6.0 mg/kg/injection, schedule: Q01DX001 (ip), vehicle: water) was 0 of 10.
For `CCN(CC)Cc1cc2[nH]c3c4ccc(Cl)cc4ncc3c2cc1OC`, the survivor count (dose: 100.0 mg/kg/injection, schedule: Q01DX009 (ip), vehicle: saline with Tween-80) was 1 of 10 and 4 of 10.
For `[Cl][Pt+2][Cl].[NH-]CC1(C[NH-])CCC1`, the survivor count (dose: 6.25 mg/kg/injection, schedule: Q01DX009 (ip), vehicle: suspension in saline) was 10 of 10.
For `NCCCNCCSP(=O)(O)O`, the survivor count (dose: 400.0 mg/kg/injection, schedule: Q01DX009 (ip), vehicle: saline with Tween-80) was 3 of 6 and the survivor count [2] was 10 of 10.
`Cc1c2ccncc2c(C)c2c1[nH]c1ccccc12` was tested, and the T/C (dose: 5.0 mg/kg/injection, schedule: Q01DX009 (ip), vehicle: distilled water + Tween-80) was 132 % of control, the T/C (dose: 10.0 mg/kg/injection, schedule: Q01DX009 (ip), vehicle: water) was 127 % of control and the survivor count (dose: 20.0 mg/kg/injection, schedule: Q01DX009 (ip), vehicle: water) was 10 of 10. The survivor count (dose: 40.0 mg/kg/injection, schedule: Q01DX009 (ip), vehicle: distilled water + Tween-80) was 10 of 10 and the survivor count (dose: 40.0 mg/kg/injection, schedule: Q01DX009 (ip), vehicle: water) was 10 of 10.
With `COc1c(O)c2c(c3cc(C(=O)N4CCc5c4c(O)c(OC)c4[nH]c(C(=O)N6CC7CC78C6=CC(=O)c6[nH]cc(C)c68)cc54)[nH]c13)CCN2C(N)=O` (stereo not drawn) the T/C (dose: 6.25 micrograms/kg/injection, schedule: Q01DX009 (ip), vehicle: DMSO) was 126 % of control, the T/C (dose: 12.5 micrograms/kg/injection, schedule: Q01DX009 (ip), vehicle: DMSO) was 129 % of control and the T/C (dose: 25.0 micrograms/kg/injection, schedule: Q01DX009 (ip), vehicle: DMSO) was 126 % of control. The T/C (dose: 50.0 micrograms/kg/injection, schedule: Q01DX009 (ip), vehicle: DMSO) was 133 % of control, the survivor count (dose: 100.0 micrograms/kg/injection, schedule: Q01DX009 (ip), vehicle: DMSO) was 9 of 10 and the survivor count (dose: 200.0 micrograms/kg/injection, schedule: Q01DX009 (ip), vehicle: DMSO) was 8 of 10.
`ClC1=C(Cl)C2(Cl)C3C(Cl)C(Cl)CC3C1(Cl)C2(Cl)Cl` (stereo not drawn) was tested, and the survivor count (dose: 200.0 mg/kg/injection, schedule: Q01DX009 (ip), vehicle: other) was 8 of 10 and the survivor count (dose: 400.0 mg/kg/injection, schedule: Q01DX009 (ip), vehicle: other) was 0 of 10.
`CCCCCCCCCCCCCCCC(=O)OCC1OC(n2ccc(N)nc2=O)C(O)C1O` (stereo not drawn) was tested, and the survivor count (dose: 30.0 mg/kg/injection, schedule: Q01DX009 (ip), vehicle: saline with Tween-80) was 10 of 10, the survivor count (dose: 60.0 mg/kg/injection, schedule: Q01DX009 (ip), vehicle: saline with Tween-80) was 10 of 10 and the survivor count (dose: 120.0 mg/kg/injection, schedule: Q01DX009 (ip), vehicle: saline with Tween-80) was 9 of 10 and 10 of 10.
`CN1C2CCC1C(Br)C(=O)C2` (stereo not drawn) was tested, and the survivor count [2] was 3 of 10.
With `CC1=NN(c2cccc(S(=O)(=O)O)c2)C(=O)C1N=Nc1cc(Cl)cc(S(=O)(=O)O)c1O.CC1=NN(c2cccc(S(=O)(=O)O)c2)C(=O)C1N=Nc1cc(Cl)cc(S(=O)(=O)O)c1O.[Cr]` (stereo not drawn) the survivor count [1] was 10 of 10, the survivor count [2] was 5 of 10 and the survivor count (dose: 800.0 mg/kg/injection, schedule: Q01DX009 (ip), vehicle: saline) was 0 of 10.
With `COc1ccc(-c2cc(C(=O)Nc3cc(C(F)(F)F)cc(C(F)(F)F)c3)c3ccccc3n2)cc1` the survivor count (dose: 50.0 mg/kg/injection, schedule: Q01DX009 (ip), vehicle: DMSO) was 6 of 6, the survivor count (dose: 100.0 mg/kg/injection, schedule: Q01DX009 (ip), vehicle: DMSO) was 5 of 6 and the survivor count (dose: 200.0 mg/kg/injection, schedule: Q01DX009 (ip), vehicle: DMSO) was 6 of 6. The survivor count (dose: 400.0 mg/kg/injection, schedule: Q01DX009 (ip), vehicle: DMSO) was 5 of 6 and the survivor count (dose: 800.0 mg/kg/injection, schedule: Q01DX009 (ip), vehicle: DMSO) was 3 of 5.
For `C/C(=N\NC(=O)c1ccncc1)c1ccc(Cl)cc1`, the survivor count (dose: 10.0 mg/kg/injection, schedule: Q01DX009 (ip), vehicle: saline with Tween-80) was 1 of 10, the survivor count (dose: 20.0 mg/kg/injection, schedule: Q01DX009 (ip), vehicle: saline with Tween-80) was 1 of 10 and the survivor count (dose: 40.0 mg/kg/injection, schedule: Q01DX009 (ip), vehicle: saline with Tween-80) was 0 of 10.
For `CNC(=O)/C=C/C1=CN2C(=O)c3ccc(C)c(O)c3NC(OC)C2C1` (stereo not drawn), the T/C (dose: 0.2 mg/kg/injection, schedule: Q01DX009 (ip), vehicle: saline) was 138 % of control, the survivor count (dose: 0.2 mg/kg/injection, schedule: Q01DX009 (ip), vehicle: suspension in saline) was 8 of 10 and the T/C [3] was 142 % of control [9 of 10 alive]. For the same compound, the survivor count [3] was 10 of 10, the survivor count (dose: 0.4 mg/kg/injection, schedule: Q01DX009 (ip), vehicle: suspension in saline) was 5 of 10 and the survivor count (dose: 0.8 mg/kg/injection, schedule: Q01DX009 (ip), vehicle: suspension in saline) was 0 of 10.
